Among the data in patent publication US6767507B1, “Uncomplexed cyclodextrin compositions for odor control” (The Procter & Gamble Company, priority 1998, dated 2004) are CD interaction values, retold here.

This series is described as follows: Cyclodextrin (CD) interaction of perfume components. Particulars: perfume component versus cyclodextrin; words weak / significant / strong. It counts as physicochemical.
As for `CC(C=O)Cc1ccc(C(C)C)cc1` (stereo not shown) [Cymal], the CD interaction entry is listed as “strong”.

As for `CCOC(=O)c1ccccc1C(=O)OCC` [Diethyl Phthalate], the CD interaction result is “weak”. Consider `CC(=O)OC1CC2CC1C1CC=CC21` (stereo not shown) [Flor Acetate], for which the CD interaction entry was “strong”. Consider `CCC(=O)OC1CC2CC1C1CC=CC21` (stereo not shown) [Frutene], for which the CD interaction result is listed as “strong”. Turning to `CC1COCc2cc3c(cc21)C(C)(C)C(C)C3(C)C` (stereo not shown) [Galaxolide], the CD interaction entry is reported as “weak”. For the compound `CCCCCCOC(=O)c1ccccc1O` [Hexyl Salicylate], the CD interaction result is “weak”.

Consider `CCCCCCC(C=O)=Cc1ccccc1` [Hexyl cinnamic Aldehyde], for which the CD interaction result is on record as “weak”. Regarding `CC(=O)C1(C)CC2=C(CCCC2(C)C)CC1C` (stereo not shown) [Iso-E Super], the CD interaction result is reported as “weak”.

Consider `CCCCCCCCCCCCCC(=O)OC(C)C` [Iso-propyl Myristate], for which the CD interaction result is listed as “weak”. The same measure for `CC(=O)C(C)=C(C)C(C)C(C)(C)C` (stereo not shown) [Koavone]: “strong”; for `CC(C=O)Cc1ccc(C(C)(C)C)cc1` (stereo not shown) [Lilial, p-t-bucinal]: “strong”; for `CC(C)(O)CCCC1=CCC(C=O)CC1` (stereo not shown) [Lyral]: “weak”.

As to `CCCCCC1C(=O)CCC1CC(=O)OC` (stereo not shown) [Methyl Dihydro Jasmonate], the CD interaction entry was “weak”. As to `O=C(Cc1ccccc1)OCCc1ccccc1` [Phenyl-Ethyl-Phenyl Acetate], the CD interaction entry is listed as “weak”.

As for `CC(=O)OC(C)(C)C1CC=C(C)CC1` (stereo not shown) [Terpinyl Acetate], the CD interaction result is “significant”. Consider `CCC(C)(O)CCCC(C)C` (stereo not shown) [Tetrahydrolinalol], for which the CD interaction result is “significant”. Turning to `CC(=O)OC1CCC(C(C)(C)C)CC1` (stereo not shown) [Vertenex, para-tert-butylcyclohexyl acetate], the CD interaction result was “strong”. Consider `CC(=O)/C=C/C1C(C)=CCCC1(C)C` (stereo not shown) [a-ionone], for which the CD interaction entry was “strong”. Regarding a-Me Ionone, the CD interaction result was “strong”.
